Data reported in the supplement of paper PMC5949888.
Most values lie at the floor of the assay. Slopes are relative: functional sequences can read slightly below zero.

test system: Saccharomyces cerevisiae PS128 hsf1 delta, HSF1(1-493) fusion; assay: growth estimate (transactivation domain function in HSF1 fusion, heat-shock survival) (a.u. (slope of normalised read count over time)); higher = stronger growth at 37°C, i.e. more transactivation activity; conditions: library: random library

**Q.** STRYLLYCV was tested. Which growth estimate did it give?
**A.** < -0.25

**Q.** How did the growth estimate turn out when STSCRALSLFTNGIAGTHTG was run?
**A.** < -0.25

**Q.** STSECLG was tested. Which growth estimate did it give?
**A.** < -0.25

**Q.** For STSIIGKDGTTTHHSDQLPV, which growth estimate is on record?
**A.** < -0.25

**Q.** For STSMGKQ, which growth estimate is on record?
**A.** < -0.25

**Q.** How did the growth estimate turn out when STSSSSVILDKIARCISR was run?
**A.** < -0.25

**Q.** For STSVYSSGSCVVRCILSHGI, which growth estimate is on record?
**A.** < -0.25

**Q.** STTT was tested. Which growth estimate did it give?
**A.** < -0.25

**Q.** Which growth estimate does the source give for STVELYDYGNGKAGTSYVFT here?
**A.** < -0.25

**Q.** Which growth estimate does the source give for STVGAKGAAHDLWQEVRPCD here?
**A.** < -0.25

**Q.** STVLTACVSWHIRIRSDRRH was tested. Which growth estimate did it give?
**A.** < -0.25

**Q.** With STVPL as the substance, how does the growth estimate read?
**A.** < -0.25

**Q.** With STVQEFIESAVLGVRFGYT as the substance, how does the growth estimate read?
**A.** < -0.25

**Q.** How did the growth estimate turn out when STVRTGSKPVSPSTLRKPHI was run?
**A.** < -0.25

**Q.** How did the growth estimate turn out when STVSLSDW was run?
**A.** < -0.25

**Q.** STVWTRTCADFMRRRRSGAG was tested. Which growth estimate did it give?
**A.** < -0.25

**Q.** Which growth estimate does the source give for STWGTAATDVP here?
**A.** < -0.25

**Q.** Which growth estimate does the source give for STWYTTNLPIGSVSTLRTCA here?
**A.** < -0.25

**Q.** STY was tested. Which growth estimate did it give?
**A.** < -0.25

**Q.** For STYALAQQVGGTGPHQWIIW, which growth estimate is on record?
**A.** < -0.25

**Q.** For STYLM, which growth estimate is on record?
**A.** < -0.25

**Q.** How did the growth estimate turn out when SVACALRETTYPSLTMVDRW was run?
**A.** < -0.25

**Q.** For SVAGGSASRISCVASLYLGS, which growth estimate is on record?
**A.** < -0.25

**Q.** How did the growth estimate turn out when SVASLLLEGVLPVSPLARPH was run?
**A.** < -0.25

**Q.** How did the growth estimate turn out when SVCLHTDVLQPP was run?
**A.** < -0.25

**Q.** How did the growth estimate turn out when SVCVNKGIAIFRDVTSSDRT was run?
**A.** -0.248

**Q.** For SVDARFLSKGVSGASHLW, which growth estimate is on record?
**A.** < -0.25

**Q.** With SVDPLRPYNTQC as the substance, how does the growth estimate read?
**A.** < -0.25

**Q.** For SVDRNSWKY, which growth estimate is on record?
**A.** < -0.25

**Q.** How did the growth estimate turn out when SVEAGYLLAIPVIGSVAACR was run?
**A.** < -0.25

**Q.** With SVF as the substance, how does the growth estimate read?
**A.** < -0.25

**Q.** How did the growth estimate turn out when SVFIRL was run?
**A.** < -0.25

**Q.** How did the growth estimate turn out when SVFVHLLPVMPTWSR was run?
**A.** < -0.25

**Q.** How did the growth estimate turn out when SVGAEGA was run?
**A.** < -0.25

**Q.** How did the growth estimate turn out when SVGIARARYRVRRVTSRKWY was run?
**A.** < -0.25

**Q.** Which growth estimate does the source give for SVGLRKDRSGPLL here?
**A.** < -0.25

**Q.** With SVGNGLTCTR as the substance, how does the growth estimate read?
**A.** < -0.25

**Q.** For SVGP, which growth estimate is on record?
**A.** -0.231

**Q.** SVGSKSARFFCSAVIANHRF was tested. Which growth estimate did it give?
**A.** < -0.25

**Q.** How did the growth estimate turn out when SVGYGR was run?
**A.** < -0.25

**Q.** Which growth estimate does the source give for SVHAS here?
**A.** < -0.25

**Q.** Which growth estimate does the source give for SVHVYI here?
**A.** < -0.25

**Q.** SVIRECLYSDYER was tested. Which growth estimate did it give?
**A.** < -0.25

**Q.** How did the growth estimate turn out when SVIRKGSGGLNAQEWPAVCR was run?
**A.** < -0.25

**Q.** For SVISRRLVVQ, which growth estimate is on record?
**A.** < -0.25

**Q.** Which growth estimate does the source give for SVKGASRGSCLARVVGS here?
**A.** < -0.25

**Q.** SVKRPGGSLGT was tested. Which growth estimate did it give?
**A.** < -0.25

**Q.** How did the growth estimate turn out when SVKSPLPRSPP was run?
**A.** < -0.25

**Q.** How did the growth estimate turn out when SVKVNPEDIVSVGGCTLYTR was run?
**A.** < -0.25

**Q.** SVLGGPLG was tested. Which growth estimate did it give?
**A.** < -0.25

**Q.** For SVLGLEAPGWDYPESAGSYQ, which growth estimate is on record?
**A.** < -0.25

**Q.** How did the growth estimate turn out when SVLGVTGSQCPRGDV was run?
**A.** < -0.25

**Q.** SVLKRCTYKHIPRLVDLAIC was tested. Which growth estimate did it give?
**A.** < -0.25

**Q.** How did the growth estimate turn out when SVLLTMG was run?
**A.** < -0.25

**Q.** How did the growth estimate turn out when SVLPALTNRRSERGRLQS was run?
**A.** -0.245

**Q.** Which growth estimate does the source give for SVLQPRAADVNGGSARSRRT here?
**A.** < -0.25

**Q.** With SVLVIRGSSMVLVLRVLRLV as the substance, how does the growth estimate read?
**A.** < -0.25

**Q.** How did the growth estimate turn out when SVMEYSITFAPEDSSAGRSV was run?
**A.** -0.145

**Q.** With SVNLRQTDLRPILCEKRLCV as the substance, how does the growth estimate read?
**A.** < -0.25

**Q.** SVNRGQVHEAYTNRAYSIRG was tested. Which growth estimate did it give?
**A.** < -0.25

**Q.** How did the growth estimate turn out when SVNRPTTRYYSGACDSR was run?
**A.** < -0.25

**Q.** How did the growth estimate turn out when SVPKCPEALTRVQRTRVSSA was run?
**A.** < -0.25

**Q.** Which growth estimate does the source give for SVPLIFTNLDI here?
**A.** -0.204

**Q.** Which growth estimate does the source give for SVPLWYRGDRCRGPRH here?
**A.** < -0.25

**Q.** With SVPVAWVRSRMRLKGGPDLG as the substance, how does the growth estimate read?
**A.** < -0.25

**Q.** With SVPVKVELTLRSNHDTGGIA as the substance, how does the growth estimate read?
**A.** < -0.25

**Q.** How did the growth estimate turn out when SVPYPDIEKARQGWHYSHSR was run?
**A.** < -0.25

**Q.** Which growth estimate does the source give for SVQQDNTQGAQRRRALGAPL here?
**A.** < -0.25

**Q.** How did the growth estimate turn out when SVQSTNDAGGFSGSGVSIGE was run?
**A.** < -0.25

**Q.** How did the growth estimate turn out when SVQT was run?
**A.** < -0.25

**Q.** Which growth estimate does the source give for SVRDDLNWILAHYAGLLRRL here?
**A.** < -0.25

**Q.** How did the growth estimate turn out when SVRLDIAVVLGHMFCLKGNH was run?
**A.** < -0.25

**Q.** SVRNPGCSLEVSQARG was tested. Which growth estimate did it give?
**A.** < -0.25

**Q.** Which growth estimate does the source give for SVRSIEVRRPRPCVLEMRGQ here?
**A.** < -0.25

**Q.** With SVRVWECALAKYFSGLSFIG as the substance, how does the growth estimate read?
**A.** < -0.25

**Q.** For SVRWYPSCPGVSSSMSRHLS, which growth estimate is on record?
**A.** < -0.25

**Q.** For SVRYTSGSISYFVELNCLDC, which growth estimate is on record?
**A.** < -0.25

**Q.** Which growth estimate does the source give for SVS here?
**A.** < -0.25

**Q.** With SVSFWLRDLGPGTAGVDSDC as the substance, how does the growth estimate read?
**A.** -0.203

**Q.** SVSG was tested. Which growth estimate did it give?
**A.** < -0.25

**Q.** With SVSIIVRDIWLKWRNANIPS as the substance, how does the growth estimate read?
**A.** < -0.25

**Q.** How did the growth estimate turn out when SVSIRGWNSTCISTVRSGIA was run?
**A.** < -0.25

**Q.** SVSPQGMIIPTCY was tested. Which growth estimate did it give?
**A.** < -0.25

**Q.** SVSQPHEVLSWYPRGFRTVL was tested. Which growth estimate did it give?
**A.** < -0.25

**Q.** For SVSRPTSLGCRGPRDVARCH, which growth estimate is on record?
**A.** < -0.25

**Q.** SVSS was tested. Which growth estimate did it give?
**A.** < -0.25

**Q.** SVSSLVGLFTVSIEFIMSAA was tested. Which growth estimate did it give?
**A.** -0.229

**Q.** SVSTGTAIFLKGRTVVRWGS was tested. Which growth estimate did it give?
**A.** < -0.25

**Q.** For SVTEKAMQRQL, which growth estimate is on record?
**A.** < -0.25

**Q.** How did the growth estimate turn out when SVTGMLCTAGRAARSNRPSS was run?
**A.** < -0.25

**Q.** With SVTRIIAFQSIHQLDDARPA as the substance, how does the growth estimate read?
**A.** -0.246

**Q.** How did the growth estimate turn out when SVTRSCLSSQFYES was run?
**A.** < -0.25

**Q.** Which growth estimate does the source give for SVVCNREMNGRSMDGFAKAR here?
**A.** < -0.25

**Q.** For SVVGTRGSPSRRIGSEVHGP, which growth estimate is on record?
**A.** < -0.25

**Q.** How did the growth estimate turn out when SVVRVTESESRVTQE was run?
**A.** < -0.25

**Q.** For SVWNSQSFVSKPTCKMGAT, which growth estimate is on record?
**A.** < -0.25

**Q.** Which growth estimate does the source give for SVWWWTRIN here?
**A.** < -0.25

**Q.** With SVYHVAISQLTSAVASGLFI as the substance, how does the growth estimate read?
**A.** < -0.25
